Values from PubChem BioAssay AID1508597 (Cure First, 2020).

- Purpose: 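Genes whose silencing sensitises or protects ovarian cancer cells against rucaparib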 (primary screen)
- Cells: human ovarian carcinoma lines grown from tumours: OCI-P5x (papillary serous) and OCI-C5x (clear cell)
- Knock-down reagent: siRNA pool against human genes, 1.25 pmol siRNA per well
- Duration: 72 h or 96 h, depending on the cell culture
- Treatment: rucaparib 20 µM (about IC30) or vehicle, present until read-out
- Rucaparib or vehicle: Rucaparib
- Cell line: OCI-C5x (clear cell)
- Measured: 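ATP luminescence measured at 72 or 96 h according to the culture, then normalised and expressed as percent viability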
- Reading the numbers: viability, normalised: higher = more viable cells remaining
- Active means: 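a well counts as a hit if its normalised viability is under 80 percent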
- Meaning of the calls: active = viability under 80%; inactive = viability 80% or more
This is an unselected part of the about 2,100 reagents, under one of the conditions tested. 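Calls flag viability under 80% in either arm, not effects specific to rucaparib; the reference for percent is not stated.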 Entries without a mark were called inactive. Some reagents were tested in more than one well and are listed for each. The record does not give: the 100% reference.

| gene symbol | technical replicate | viability, normalised (%) |
| --- | --- | --- |
| TMPO | 1 | 69.3 (active) |
| TMPO | 2 | 59.3 (active) |
| TMPO | 3 | 61.3 (active) |
| PRG3 | 1 | 63.8 (active) |
| PRG3 | 2 | 64.7 (active) |
| PRG3 | 3 | 54.9 (active) |
| NCOA6 | 1 | 45.6 (active) |
| NCOA6 | 2 | 53.8 (active) |
| NCOA6 | 3 | 39.3 (active) |
| DNMT3L | 1 | 59.2 (active) |
| DNMT3L | 2 | 42.6 (active) |
| DNMT3L | 3 | 39.1 (active) |
| DMTF1 | 1 | 47.3 (active) |
| DMTF1 | 2 | 46.6 (active) |
| DMTF1 | 3 | 46.6 (active) |
| ZFP42 | 1 | 74 (active) |
| ZFP42 | 2 | 45.3 (active) |
| ZFP42 | 3 | 52.3 (active) |
| NTPCR | 1 | 66.8 (active) |
| NTPCR | 2 | 84.1 |
| NTPCR | 3 | 70.5 (active) |

Part of the list above in another layout:
DMTF1, technical replicate 3 | viability, normalised (%): 46.6 (active)
ZFP42, technical replicate 1 | viability, normalised (%): 74 (active)
ZFP42, technical replicate 2 | viability, normalised (%): 45.3 (active)

The list goes on.
| gene symbol | technical replicate | viability, normalised (%) |
| --- | --- | --- |
| SIRT5 | 1 | 45.1 (active) |
| SIRT5 | 2 | 35.6 (active) |
| SIRT5 | 3 | 36.2 (active) |
| SFMBT2 | 1 | 45.9 (active) |
| SFMBT2 | 2 | 37.1 (active) |
| SFMBT2 | 3 | 39.8 (active) |
| ERCC8 | 1 | 58.9 (active) |
| ERCC8 | 2 | 64.8 (active) |
| ERCC8 | 3 | 54.2 (active) |
| BRD4 | 1 | 48.2 (active) |
| BRD4 | 1 | 48.4 (active) |
| BRD4 | 1 | 60.2 (active) |
| BRD4 | 1 | 67.1 (active) |
| BRD4 | 2 | 59.6 (active) |
| BRD4 | 2 | 52.9 (active) |
| BRD4 | 2 | 53.8 (active) |
| BRD4 | 2 | 43.3 (active) |
| BRD4 | 3 | 58.1 (active) |
| BRD4 | 3 | 54.1 (active) |
| BRD4 | 3 | 49 (active) |
| BRD4 | 3 | 44.7 (active) |
